From the supplement of paper PMC8866396 come the findings set out here.

± gives the standard deviation of the averaged measurements. This is one part of the list. Most values lie within the scatter of the assay; repeated measurements hardly agree.

In the experiment the test system is IL-6-GFP PC-9GR. Put plainly: IL-6-GFP fluorescence relative to DMSO control (fraction of control); higher = more IL-6-GFP expression. Particulars: compound concentration: 10 uM; treatment time: 48 h. The procedure: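 IL-6-GFP-overexpressing PC-9 and PC-9GR EGFR-mutant lung cancer cells (3000 cells/well, 96-well) were treated for 48 h with each compound of the Selleck L2000 library at 10 uM. IL-6-GFP fluorescence was read on a high-content screening system, and viability by CCK-8 absorbance on a parallel plate set. Each value was normalised as compound well / DMSO control well; two independent replicates.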
Molecule `CC(C)C(=O)Nc1ccc([N+](=O)[O-])c(C(F)(F)F)c1` [Flutamide] registered an IL-6-GFP fluorescence of 0.814 ± 0.11.
Next, `Nc1nc(F)nc2c1ncn2C1OC(CO)C(O)C1O` (stereo unspecified) [Fludarabine]: 0.927 ± 0.39; `CONC(=O)Nc1ccc(-c2sc3c(c2CN(C)C)c(=O)n(-c2ccc(OC)nn2)c(=O)n3Cc2c(F)cccc2F)cc1` [Relugolix]: 0.968 ± 0.055.
Next, `CC1CC2C3CC(F)C4=CC(=O)C=CC4(C)C3(F)C(O)CC2(C)C1(OC(=O)c1ccco1)C(=O)SCF` (stereo unspecified) [fluticasone furoate]: 0.718 ± 0.049; `Cc1cccc(N(C)C(=S)Oc2ccc3ccccc3c2)c1` [Tolnaftate]: 0.66 ± 0.27; `Nc1nnc(-c2cccc(Cl)c2Cl)c(N)n1` [Lamotrigine]: 0.909 ± 0.14.
Next, `COC(=O)c1cc(OC)c2c(c1-c1c(C(=O)OC)cc(OC)c3c1OCO3)OCO2` [Bifendate]: 0.648 ± 0.12; `CCC1(O)CC2CN(CCc3c([nH]c4ccccc34)C(C(=O)OC)(c3cc4c(cc3OC)N(C=O)C3C(O)(C(=O)OC)C(OC(C)=O)C5(CC)C=CCN6CCC43C65)C2)C1.O=S(=O)(O)O` (stereo unspecified) [Vincristine sulfate]: 1.05 ± 0.029; `O=C(O)c1cc(N=Nc2ccc(S(=O)(=O)Nc3ccccn3)cc2)ccc1O` [Sulfasalazine]: 0.7945 ± 0.0064.
In the case of `O=C(c1cc(Cc2n[nH]c(=O)c3ccccc23)ccc1F)N1CCN(C(=O)C2CC2)CC1`, the IL-6-GFP fluorescence was determined as 1.16 ± 0.22.
In turn, `CC1(C)OC2CC3C4CCC5=CC(=O)C=CC5(C)C4C(O)CC3(C)C2(C(=O)CO)O1` (stereo unspecified) [Desonide] returned an IL-6-GFP fluorescence of 0.829 ± 0.35.
